Substitutions are numbered along the chain they refer to. Only a part is listed here, and it is no random draw. The calls were merged from several studies; some rest on single wells. This is one part of the list.
Columns and labels:
Conditions in all cases: stereoisomer not certain
OR8B3 = tested on: T1, OR8B3
T1 sequence (whole entry): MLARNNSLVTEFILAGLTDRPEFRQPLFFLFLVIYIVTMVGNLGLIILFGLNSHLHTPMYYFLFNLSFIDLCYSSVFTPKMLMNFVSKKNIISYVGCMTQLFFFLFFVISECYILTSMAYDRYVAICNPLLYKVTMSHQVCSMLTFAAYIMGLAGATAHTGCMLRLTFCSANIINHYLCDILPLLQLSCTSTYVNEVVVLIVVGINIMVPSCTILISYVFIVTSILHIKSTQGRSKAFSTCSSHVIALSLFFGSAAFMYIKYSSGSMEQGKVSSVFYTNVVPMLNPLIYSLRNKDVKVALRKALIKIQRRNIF
Outline: (§1)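 Transient luciferase assays in mammalian cell lines were common, though methods varied by source. The values come from published papers and their supplementary material, with extra details from the original authors when needed. Responsive refers to a measured signal the original authors judged statistically different from baseline, and non-responsive (inactive) to the remainder.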

Chains of the proteins cited; added tags and fusions are not shown. Chains listed by the source or under a name are the forms on record and can include a tag or linker.
OR8B4, as listed by the source: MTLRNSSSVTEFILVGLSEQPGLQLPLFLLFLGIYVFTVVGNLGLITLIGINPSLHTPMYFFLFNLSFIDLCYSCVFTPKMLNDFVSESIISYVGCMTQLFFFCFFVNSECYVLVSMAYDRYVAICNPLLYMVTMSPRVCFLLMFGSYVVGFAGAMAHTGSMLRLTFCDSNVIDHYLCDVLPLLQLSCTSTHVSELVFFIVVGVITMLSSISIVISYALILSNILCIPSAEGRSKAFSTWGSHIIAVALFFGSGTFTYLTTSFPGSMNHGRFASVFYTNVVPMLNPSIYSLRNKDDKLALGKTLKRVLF

OR8B4 [1] = tested on: T2, OR8B4
T2 sequence (whole entry): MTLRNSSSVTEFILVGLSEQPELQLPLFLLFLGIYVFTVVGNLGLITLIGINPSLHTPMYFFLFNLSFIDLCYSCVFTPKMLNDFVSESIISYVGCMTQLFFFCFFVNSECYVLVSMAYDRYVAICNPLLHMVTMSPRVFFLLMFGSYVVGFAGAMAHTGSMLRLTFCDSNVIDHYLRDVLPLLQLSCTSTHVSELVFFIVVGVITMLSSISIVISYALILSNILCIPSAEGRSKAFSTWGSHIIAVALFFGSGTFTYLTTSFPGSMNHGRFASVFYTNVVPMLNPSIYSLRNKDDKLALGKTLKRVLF
Outline: as §1

OR8B4 [2] = tested on: T3, OR8B4; remark: listed apart in the source
T3 sequence (whole entry): T2 sequence (whole entry) with E22G, H131Y, F140C, R178C
Outline: as §1

OR8B8 (Homo sapiens) = biological target: T4, OR8B8 (Homo sapiens) (UniProt Q15620)
T4 sequence (whole entry): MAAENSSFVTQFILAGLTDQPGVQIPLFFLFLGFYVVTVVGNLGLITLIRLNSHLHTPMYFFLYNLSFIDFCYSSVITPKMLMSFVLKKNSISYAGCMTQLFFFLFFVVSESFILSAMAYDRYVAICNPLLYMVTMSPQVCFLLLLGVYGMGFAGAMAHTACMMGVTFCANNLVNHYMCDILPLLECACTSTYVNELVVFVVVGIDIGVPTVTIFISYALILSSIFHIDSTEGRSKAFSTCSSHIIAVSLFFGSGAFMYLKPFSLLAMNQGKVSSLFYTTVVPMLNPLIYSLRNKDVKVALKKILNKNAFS
Outline: as §1

OR8B8 = tested on: T5, OR8B8
T5 sequence (whole entry): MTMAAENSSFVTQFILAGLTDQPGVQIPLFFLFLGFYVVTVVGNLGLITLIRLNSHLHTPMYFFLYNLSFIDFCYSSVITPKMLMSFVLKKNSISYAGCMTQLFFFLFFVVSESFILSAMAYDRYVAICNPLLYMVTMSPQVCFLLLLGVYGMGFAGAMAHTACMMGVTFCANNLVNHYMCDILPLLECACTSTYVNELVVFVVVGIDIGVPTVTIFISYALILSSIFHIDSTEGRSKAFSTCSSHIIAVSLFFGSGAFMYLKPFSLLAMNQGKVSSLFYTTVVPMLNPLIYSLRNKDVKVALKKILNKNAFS
Outline: as §1

OR8D1 (Homo sapiens) = biological target: T6, OR8D1 (Homo sapiens) (UniProt Q8WZ84)
T6 sequence (whole entry): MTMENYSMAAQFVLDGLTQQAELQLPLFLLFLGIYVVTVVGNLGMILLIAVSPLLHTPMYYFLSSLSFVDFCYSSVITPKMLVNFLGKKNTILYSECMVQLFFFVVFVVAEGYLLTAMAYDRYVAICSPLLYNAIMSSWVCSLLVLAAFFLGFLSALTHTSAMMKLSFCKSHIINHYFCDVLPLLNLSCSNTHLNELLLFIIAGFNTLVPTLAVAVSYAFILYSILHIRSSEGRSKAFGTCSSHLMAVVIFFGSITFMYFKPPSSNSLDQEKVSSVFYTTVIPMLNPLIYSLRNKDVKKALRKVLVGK
Outline: as §1

OR8D2 (Homo sapiens) = biological target: T7, OR8D2 (Homo sapiens) (UniProt Q9GZM6)
T7 sequence (whole entry): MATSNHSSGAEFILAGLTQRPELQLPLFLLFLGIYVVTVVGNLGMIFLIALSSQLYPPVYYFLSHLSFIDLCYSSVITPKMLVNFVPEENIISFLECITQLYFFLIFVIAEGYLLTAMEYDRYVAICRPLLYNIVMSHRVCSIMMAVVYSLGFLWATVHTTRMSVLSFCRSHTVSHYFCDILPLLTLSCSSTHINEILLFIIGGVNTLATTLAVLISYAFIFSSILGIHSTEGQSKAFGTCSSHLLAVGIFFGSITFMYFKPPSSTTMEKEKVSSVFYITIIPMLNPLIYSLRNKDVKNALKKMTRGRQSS
Outline: as §1

OR8D4 = tested on: T8, OR8D4
T8 sequence (whole entry): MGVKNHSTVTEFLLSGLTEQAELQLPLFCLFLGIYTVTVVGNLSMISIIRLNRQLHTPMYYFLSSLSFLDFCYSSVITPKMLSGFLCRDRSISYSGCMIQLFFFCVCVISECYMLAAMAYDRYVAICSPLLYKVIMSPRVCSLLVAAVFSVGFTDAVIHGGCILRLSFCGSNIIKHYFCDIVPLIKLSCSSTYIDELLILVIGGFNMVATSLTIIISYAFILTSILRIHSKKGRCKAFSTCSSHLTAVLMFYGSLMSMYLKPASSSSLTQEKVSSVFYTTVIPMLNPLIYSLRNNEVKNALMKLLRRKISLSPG
Outline: as §1

OR8G1 (Homo sapiens) = biological target: T9, OR8G1 (Homo sapiens) (UniProt Q15617)
T9 sequence (whole entry): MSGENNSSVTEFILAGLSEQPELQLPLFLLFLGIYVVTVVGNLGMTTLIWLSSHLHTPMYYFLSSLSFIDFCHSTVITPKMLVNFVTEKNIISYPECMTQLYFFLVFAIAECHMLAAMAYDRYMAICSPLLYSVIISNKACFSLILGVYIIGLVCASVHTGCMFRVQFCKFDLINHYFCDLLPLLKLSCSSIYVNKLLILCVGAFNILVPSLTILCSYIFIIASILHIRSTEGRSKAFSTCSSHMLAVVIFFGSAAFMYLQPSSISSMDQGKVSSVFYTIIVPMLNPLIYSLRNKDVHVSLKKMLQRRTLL
Outline: as §1

OR8G5 (Homo sapiens) = biological target: T10, OR8G5 (Homo sapiens) (UniProt Q8NG78)
T10 sequence (whole entry): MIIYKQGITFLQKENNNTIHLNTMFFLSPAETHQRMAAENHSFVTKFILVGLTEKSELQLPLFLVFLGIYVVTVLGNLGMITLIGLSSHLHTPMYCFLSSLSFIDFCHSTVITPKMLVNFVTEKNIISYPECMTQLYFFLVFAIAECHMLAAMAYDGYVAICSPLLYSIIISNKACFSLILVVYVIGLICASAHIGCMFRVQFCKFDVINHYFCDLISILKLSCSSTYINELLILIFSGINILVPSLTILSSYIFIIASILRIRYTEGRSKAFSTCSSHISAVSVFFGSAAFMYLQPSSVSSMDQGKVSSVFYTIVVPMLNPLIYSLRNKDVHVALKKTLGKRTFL
Outline: as §1

OR8G5 = tested on: T11, OR8G5
T11 sequence (whole entry): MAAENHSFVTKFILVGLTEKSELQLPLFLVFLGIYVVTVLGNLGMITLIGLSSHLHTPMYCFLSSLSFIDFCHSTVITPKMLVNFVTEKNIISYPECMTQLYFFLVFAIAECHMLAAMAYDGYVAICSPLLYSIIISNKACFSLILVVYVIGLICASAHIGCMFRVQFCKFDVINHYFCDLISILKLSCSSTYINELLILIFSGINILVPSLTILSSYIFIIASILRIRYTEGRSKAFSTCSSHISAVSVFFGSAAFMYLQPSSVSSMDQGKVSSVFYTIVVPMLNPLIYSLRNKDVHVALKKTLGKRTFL
Outline: as §1

OR8H1 (Homo sapiens) = biological target: T12, OR8H1 (Homo sapiens) (UniProt Q8NGG4)
T12 sequence (whole entry): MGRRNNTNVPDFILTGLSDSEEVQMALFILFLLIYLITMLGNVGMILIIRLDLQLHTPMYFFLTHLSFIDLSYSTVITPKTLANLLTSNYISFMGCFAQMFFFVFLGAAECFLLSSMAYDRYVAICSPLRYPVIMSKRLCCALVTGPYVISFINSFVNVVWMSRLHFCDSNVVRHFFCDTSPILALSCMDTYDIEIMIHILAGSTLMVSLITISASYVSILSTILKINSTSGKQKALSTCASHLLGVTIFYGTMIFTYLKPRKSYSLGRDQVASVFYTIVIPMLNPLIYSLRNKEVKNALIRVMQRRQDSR
Outline: as §1

OR8H2 = tested on: T13, OR8H2
T13 sequence (whole entry): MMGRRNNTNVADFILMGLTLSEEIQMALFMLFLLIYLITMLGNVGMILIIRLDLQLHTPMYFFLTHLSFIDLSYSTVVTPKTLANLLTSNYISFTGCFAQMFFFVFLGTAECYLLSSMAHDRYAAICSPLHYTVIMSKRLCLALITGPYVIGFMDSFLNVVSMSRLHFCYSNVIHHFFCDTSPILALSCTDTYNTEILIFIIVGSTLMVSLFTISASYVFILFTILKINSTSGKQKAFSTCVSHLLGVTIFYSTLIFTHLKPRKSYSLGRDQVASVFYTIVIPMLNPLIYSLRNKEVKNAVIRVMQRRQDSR
Outline: as §1

OR8H3 = tested on: T14, OR8H3
T14 sequence (whole entry): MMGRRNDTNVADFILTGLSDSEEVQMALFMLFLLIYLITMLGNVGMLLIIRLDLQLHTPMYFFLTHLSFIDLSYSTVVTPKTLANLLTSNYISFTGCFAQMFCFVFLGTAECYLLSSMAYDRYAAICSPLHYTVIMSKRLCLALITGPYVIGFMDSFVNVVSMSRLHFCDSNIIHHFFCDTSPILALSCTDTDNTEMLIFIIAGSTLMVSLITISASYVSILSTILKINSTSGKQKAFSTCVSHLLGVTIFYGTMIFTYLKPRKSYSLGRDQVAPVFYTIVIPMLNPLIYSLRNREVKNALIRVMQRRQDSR
Outline: as §1

OR8I2 = tested on: T15, OR8I2
T15 sequence (whole entry): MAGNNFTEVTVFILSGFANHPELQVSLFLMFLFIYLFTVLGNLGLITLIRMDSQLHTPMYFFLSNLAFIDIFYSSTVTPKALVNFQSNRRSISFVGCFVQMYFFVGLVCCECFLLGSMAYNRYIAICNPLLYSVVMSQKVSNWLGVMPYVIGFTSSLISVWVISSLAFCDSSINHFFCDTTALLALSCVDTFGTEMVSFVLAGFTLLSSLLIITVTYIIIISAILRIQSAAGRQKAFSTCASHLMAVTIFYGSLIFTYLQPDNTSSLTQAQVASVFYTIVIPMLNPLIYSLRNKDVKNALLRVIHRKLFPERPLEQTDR
Outline: as §1

OR8J1 = tested on: T16, OR8J1
T16 sequence (whole entry): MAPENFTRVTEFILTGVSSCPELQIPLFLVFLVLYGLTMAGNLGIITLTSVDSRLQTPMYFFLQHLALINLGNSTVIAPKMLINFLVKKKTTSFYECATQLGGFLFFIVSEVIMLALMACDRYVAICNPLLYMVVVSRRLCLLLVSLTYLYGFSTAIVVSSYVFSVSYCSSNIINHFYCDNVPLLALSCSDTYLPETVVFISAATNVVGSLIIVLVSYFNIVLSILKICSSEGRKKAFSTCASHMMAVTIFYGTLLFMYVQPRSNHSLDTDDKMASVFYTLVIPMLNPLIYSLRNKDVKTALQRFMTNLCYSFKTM
Outline: as §1

OR8J3 (Homo sapiens) = biological target: T17, OR8J3 (Homo sapiens) (UniProt Q8NGG0)
T17 sequence (whole entry): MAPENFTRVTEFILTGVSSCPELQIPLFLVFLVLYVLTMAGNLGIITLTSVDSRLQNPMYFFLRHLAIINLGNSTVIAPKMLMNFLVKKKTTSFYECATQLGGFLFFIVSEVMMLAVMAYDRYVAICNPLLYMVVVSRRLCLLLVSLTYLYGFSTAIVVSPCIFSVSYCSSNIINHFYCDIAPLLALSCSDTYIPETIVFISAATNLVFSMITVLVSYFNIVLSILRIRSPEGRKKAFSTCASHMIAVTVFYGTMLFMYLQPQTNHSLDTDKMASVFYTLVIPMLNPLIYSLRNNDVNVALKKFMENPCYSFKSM
Outline: as §1

OR8K1 (Homo sapiens) = biological target: T18, OR8K1 (Homo sapiens) (UniProt Q8NGG5)
T18 sequence (whole entry): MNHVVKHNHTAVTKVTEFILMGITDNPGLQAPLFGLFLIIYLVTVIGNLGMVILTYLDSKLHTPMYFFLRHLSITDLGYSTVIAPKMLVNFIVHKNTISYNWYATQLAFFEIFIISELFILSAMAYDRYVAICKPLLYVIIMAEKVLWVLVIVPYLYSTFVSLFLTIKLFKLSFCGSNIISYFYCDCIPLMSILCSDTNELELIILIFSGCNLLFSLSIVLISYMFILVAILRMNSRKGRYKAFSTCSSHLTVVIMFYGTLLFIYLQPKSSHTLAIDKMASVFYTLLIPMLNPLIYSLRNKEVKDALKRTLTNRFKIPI
Outline: as §1

OR8K3 = tested on: T19, OR8K3
T19 sequence (whole entry): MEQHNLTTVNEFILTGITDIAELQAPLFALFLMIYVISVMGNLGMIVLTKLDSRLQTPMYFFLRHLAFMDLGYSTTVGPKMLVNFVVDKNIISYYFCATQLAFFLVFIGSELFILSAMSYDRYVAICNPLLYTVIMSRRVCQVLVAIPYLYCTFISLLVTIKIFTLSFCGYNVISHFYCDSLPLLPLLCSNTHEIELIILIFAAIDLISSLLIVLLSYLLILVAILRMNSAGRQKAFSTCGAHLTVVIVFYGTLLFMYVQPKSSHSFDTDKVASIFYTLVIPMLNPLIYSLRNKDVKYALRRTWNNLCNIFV
Outline: as §1

OR8K5 = tested on: T20, OR8K5
T20 sequence (whole entry): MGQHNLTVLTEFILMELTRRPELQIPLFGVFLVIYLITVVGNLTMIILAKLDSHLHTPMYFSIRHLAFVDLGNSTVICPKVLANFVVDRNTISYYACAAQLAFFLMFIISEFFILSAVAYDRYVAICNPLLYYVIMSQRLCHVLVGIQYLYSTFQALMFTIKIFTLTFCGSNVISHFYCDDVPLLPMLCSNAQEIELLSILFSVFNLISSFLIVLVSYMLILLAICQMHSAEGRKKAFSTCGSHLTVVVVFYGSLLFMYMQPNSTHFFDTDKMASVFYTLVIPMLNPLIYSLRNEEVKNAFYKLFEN
Outline: as §1

Measured: odorant receptor agonist call;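 note: active if original authors judged signal statistically different from baseline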

CCCCOC(C)=O
inactive: all assays above

Reference: the M2OR odorant receptor database
